Experimental data taken from the supplement of paper PMC10849652.
The other results are listed elsewhere or left out.

Chains of the proteins cited; added tags and fusions are not shown. Lines headed by an entry give the natural chain unless they say otherwise; changes in a name come on top.
UniProt Q15155: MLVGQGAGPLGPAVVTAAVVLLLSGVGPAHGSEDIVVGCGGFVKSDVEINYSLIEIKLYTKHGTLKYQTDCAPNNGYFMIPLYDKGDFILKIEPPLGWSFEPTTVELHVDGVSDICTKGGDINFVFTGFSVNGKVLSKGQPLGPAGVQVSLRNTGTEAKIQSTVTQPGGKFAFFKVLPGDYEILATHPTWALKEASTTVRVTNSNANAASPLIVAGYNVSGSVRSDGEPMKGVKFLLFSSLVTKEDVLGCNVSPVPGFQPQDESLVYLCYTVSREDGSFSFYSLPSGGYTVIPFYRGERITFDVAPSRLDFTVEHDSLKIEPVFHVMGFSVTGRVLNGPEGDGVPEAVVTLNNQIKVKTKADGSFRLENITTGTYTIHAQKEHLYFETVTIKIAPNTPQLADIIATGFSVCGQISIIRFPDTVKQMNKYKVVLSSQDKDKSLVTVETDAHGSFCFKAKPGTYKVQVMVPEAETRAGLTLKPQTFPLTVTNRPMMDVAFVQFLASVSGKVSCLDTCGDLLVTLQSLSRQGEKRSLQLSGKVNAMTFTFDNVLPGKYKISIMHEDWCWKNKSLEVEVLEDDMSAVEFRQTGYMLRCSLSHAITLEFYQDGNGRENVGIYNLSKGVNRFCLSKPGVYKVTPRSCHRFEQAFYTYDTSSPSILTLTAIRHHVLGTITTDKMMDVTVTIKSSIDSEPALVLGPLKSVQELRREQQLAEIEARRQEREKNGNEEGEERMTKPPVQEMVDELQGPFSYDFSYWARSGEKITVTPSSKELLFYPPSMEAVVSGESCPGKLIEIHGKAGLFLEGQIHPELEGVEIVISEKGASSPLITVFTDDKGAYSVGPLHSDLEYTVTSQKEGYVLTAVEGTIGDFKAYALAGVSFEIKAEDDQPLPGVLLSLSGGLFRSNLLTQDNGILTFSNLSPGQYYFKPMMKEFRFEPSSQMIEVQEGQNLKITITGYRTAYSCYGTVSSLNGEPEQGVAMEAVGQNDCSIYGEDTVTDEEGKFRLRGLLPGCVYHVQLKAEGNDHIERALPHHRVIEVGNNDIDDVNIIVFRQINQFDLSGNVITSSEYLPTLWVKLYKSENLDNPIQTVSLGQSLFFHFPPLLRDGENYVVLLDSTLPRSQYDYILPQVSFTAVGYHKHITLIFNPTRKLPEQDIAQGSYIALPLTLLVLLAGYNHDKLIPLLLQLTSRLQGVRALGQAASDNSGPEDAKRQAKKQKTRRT
UniProt Q14978: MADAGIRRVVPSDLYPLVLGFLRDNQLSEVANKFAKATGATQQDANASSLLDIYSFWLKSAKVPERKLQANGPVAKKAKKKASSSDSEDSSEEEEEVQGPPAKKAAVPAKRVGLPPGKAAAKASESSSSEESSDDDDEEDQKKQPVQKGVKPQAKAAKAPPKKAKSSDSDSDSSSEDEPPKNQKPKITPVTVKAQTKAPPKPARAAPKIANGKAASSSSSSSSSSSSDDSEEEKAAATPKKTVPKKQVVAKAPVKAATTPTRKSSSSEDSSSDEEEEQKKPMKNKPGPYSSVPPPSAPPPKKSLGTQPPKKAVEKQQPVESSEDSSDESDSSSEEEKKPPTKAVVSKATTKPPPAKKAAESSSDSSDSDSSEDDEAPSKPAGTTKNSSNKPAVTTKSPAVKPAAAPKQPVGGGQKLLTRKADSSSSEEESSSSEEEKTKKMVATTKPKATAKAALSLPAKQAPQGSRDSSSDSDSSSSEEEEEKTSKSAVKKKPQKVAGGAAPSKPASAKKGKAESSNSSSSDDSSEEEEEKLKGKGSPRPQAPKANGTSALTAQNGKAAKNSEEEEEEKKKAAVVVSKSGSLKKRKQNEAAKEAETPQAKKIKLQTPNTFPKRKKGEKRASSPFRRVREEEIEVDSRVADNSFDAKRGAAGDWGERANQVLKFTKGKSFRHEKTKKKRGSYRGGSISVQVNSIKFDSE
UniProt Q9H3P2, whole entry, looked up: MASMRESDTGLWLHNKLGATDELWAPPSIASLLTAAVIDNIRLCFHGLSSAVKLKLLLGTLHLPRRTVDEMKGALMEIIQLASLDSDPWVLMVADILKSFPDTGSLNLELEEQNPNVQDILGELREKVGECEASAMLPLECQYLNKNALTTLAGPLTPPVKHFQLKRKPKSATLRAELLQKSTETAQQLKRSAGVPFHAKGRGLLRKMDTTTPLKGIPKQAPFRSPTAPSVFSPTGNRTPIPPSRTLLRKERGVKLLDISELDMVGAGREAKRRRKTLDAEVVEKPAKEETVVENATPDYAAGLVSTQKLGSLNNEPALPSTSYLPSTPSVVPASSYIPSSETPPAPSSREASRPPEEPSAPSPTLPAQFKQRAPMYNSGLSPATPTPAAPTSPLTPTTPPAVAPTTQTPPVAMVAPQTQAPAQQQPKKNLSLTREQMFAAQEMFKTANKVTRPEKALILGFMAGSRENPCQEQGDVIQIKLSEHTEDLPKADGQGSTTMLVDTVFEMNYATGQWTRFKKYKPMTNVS
UniProt Q16656: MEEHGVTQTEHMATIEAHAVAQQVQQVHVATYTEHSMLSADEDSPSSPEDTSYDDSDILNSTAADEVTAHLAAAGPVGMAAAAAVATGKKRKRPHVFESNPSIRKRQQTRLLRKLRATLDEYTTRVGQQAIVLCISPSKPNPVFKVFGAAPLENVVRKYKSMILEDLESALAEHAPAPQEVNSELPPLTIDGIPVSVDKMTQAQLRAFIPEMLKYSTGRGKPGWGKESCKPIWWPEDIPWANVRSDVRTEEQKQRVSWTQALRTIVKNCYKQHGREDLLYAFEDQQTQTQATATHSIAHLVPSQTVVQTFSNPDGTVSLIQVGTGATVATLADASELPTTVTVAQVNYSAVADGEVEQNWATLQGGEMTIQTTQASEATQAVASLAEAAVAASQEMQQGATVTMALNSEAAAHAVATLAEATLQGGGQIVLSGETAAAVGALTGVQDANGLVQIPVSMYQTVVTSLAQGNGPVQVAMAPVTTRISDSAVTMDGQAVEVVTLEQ
UniProt Q9Y2I1: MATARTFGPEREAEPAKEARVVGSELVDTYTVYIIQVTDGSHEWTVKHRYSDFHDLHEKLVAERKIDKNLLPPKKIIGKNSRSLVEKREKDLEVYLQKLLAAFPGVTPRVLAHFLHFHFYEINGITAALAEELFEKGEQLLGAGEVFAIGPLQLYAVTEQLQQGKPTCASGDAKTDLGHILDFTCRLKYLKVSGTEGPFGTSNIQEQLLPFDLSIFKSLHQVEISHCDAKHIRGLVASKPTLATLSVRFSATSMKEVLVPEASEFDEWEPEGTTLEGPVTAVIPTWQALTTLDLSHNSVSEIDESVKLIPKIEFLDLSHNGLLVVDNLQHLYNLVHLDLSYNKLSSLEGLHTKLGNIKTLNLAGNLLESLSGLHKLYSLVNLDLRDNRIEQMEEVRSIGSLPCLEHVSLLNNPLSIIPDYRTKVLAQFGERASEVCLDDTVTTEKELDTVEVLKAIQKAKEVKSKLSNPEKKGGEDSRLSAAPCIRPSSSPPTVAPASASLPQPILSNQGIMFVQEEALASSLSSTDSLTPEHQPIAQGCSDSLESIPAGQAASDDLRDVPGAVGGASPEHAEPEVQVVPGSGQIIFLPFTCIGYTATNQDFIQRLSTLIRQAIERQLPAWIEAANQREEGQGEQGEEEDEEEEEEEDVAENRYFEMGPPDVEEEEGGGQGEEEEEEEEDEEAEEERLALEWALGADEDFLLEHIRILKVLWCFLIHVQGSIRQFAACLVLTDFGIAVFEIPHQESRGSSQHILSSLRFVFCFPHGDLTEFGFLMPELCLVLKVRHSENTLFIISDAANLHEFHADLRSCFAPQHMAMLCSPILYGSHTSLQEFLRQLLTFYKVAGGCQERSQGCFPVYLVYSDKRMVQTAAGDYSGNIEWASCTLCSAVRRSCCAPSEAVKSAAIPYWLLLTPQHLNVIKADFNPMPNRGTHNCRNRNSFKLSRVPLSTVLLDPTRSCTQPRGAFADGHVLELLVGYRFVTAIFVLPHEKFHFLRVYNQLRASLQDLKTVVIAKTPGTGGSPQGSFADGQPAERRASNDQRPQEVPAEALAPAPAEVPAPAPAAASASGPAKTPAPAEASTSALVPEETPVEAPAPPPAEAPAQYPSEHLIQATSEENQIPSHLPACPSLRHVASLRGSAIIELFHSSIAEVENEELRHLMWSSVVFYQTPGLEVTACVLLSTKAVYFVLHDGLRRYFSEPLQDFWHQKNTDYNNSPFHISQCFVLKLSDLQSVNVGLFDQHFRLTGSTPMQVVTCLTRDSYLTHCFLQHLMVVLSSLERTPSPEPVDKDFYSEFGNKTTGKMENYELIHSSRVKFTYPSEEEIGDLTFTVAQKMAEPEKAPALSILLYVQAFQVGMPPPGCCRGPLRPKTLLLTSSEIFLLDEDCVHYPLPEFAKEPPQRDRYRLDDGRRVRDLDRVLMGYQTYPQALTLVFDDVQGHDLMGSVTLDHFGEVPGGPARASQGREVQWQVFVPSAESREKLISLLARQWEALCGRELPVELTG
UniProt Q8NCF5: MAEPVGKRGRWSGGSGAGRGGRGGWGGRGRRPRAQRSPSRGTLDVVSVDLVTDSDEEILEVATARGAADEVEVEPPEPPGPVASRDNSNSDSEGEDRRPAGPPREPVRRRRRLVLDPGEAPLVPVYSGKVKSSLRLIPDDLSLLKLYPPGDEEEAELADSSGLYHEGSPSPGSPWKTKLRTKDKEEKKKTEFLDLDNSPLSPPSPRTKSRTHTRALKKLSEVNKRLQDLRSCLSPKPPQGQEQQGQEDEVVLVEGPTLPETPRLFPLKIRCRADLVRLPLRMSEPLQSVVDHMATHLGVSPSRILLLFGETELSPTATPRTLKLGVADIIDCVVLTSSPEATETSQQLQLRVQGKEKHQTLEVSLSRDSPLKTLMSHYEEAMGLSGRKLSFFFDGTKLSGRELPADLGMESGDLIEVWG
UniProt O75414: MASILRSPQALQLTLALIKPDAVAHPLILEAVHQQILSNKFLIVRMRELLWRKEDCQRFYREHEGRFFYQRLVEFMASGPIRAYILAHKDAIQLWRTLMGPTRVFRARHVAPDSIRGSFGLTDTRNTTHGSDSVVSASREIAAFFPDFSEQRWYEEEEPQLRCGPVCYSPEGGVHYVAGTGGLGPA
UniProt Q8N8Q9: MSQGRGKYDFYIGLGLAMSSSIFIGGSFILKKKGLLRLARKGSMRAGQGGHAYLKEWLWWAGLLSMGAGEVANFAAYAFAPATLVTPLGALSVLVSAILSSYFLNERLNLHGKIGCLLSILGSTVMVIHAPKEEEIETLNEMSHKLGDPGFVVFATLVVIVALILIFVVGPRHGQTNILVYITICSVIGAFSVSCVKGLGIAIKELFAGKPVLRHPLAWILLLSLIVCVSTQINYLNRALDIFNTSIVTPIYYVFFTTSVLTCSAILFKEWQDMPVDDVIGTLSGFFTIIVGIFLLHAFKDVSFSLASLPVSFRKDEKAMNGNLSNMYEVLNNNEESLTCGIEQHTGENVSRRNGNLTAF
UniProt Q9Y697: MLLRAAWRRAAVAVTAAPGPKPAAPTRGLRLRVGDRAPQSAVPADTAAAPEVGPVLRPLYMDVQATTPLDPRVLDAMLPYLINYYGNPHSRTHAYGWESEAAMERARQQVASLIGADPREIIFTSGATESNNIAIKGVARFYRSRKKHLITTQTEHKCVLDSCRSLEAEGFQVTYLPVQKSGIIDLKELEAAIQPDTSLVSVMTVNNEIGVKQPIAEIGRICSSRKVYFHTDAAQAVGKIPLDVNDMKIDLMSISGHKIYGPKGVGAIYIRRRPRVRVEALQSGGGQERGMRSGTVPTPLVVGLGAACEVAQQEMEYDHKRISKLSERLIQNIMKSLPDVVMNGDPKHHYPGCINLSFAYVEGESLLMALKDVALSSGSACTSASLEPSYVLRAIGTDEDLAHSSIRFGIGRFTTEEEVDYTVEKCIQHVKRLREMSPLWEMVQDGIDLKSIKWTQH
UniProt Q86X76: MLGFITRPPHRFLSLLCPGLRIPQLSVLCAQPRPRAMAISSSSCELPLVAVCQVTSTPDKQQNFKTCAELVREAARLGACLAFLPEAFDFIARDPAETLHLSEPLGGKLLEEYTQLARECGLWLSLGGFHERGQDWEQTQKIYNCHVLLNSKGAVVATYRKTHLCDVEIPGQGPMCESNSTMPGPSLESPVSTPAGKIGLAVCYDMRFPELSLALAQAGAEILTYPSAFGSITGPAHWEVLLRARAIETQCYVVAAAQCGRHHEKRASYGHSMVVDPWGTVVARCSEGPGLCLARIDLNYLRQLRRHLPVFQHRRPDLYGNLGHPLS

What follows are targets tested with Cc1sc2c(c1C)C(c1ccc(Cl)cc1)=N[C@@H](CC(=O)OC(C)(C)C)c1nnc(C)n1-2 (assay: log2 fold change, soluble protein after heating vs DMSO (PISA); higher = thermal stabilisation; K562 cells, 10 uM, 30 min; active = over 0.2 and 3.5 SD of the protein, either way, in both replicates (recomputed)).
How it was run: (§1)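 K562 cells (2×10^6 cells/mL) were treated with 10 μM compound for 30 min, and aliquots were heated for 3 min over 48°C-58°C. Pooled aliquots were extracted in PBS with 0.5% NP-40 at 4°C, and the supernatant after 21,000xg for 90 min was measured by TMTpro 16plex LC-MS/MS with channel sums equalised. Reported thermal stability, relative to control samples and from duplicates, is a log2 fold change.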

Target	log2 fold change
NFIA isoform 4 (UniProt Q12857)	inactive: 0.067
NOP56 (UniProt O00567)	inactive: 0.154
NFIC (UniProt P08651)	inactive: -0.004
NR2F6 (UniProt P10588)	inactive: 0.084
NSD3 (UniProt Q9BZ95)	inactive: 0.278
NOA1 (UniProt Q8NC60)	inactive: 0.02
NIPSNAP3B (UniProt Q9BS92)	inactive: -0.021
NHLRC2 (UniProt Q8NBF2)	inactive: 0.009
NOMO1 (UniProt Q15155)	inactive: -0.145
NOLC1 isoform 2 (UniProt Q14978)	inactive: -0.012
NMT1 (UniProt P30419)	inactive: 0.076
NEU1 (UniProt Q99519)	inactive: -0.043
NELFA (UniProt Q9H3P2)	inactive: -0.07
NIBAN1 (UniProt Q9BZQ8)	inactive: 0.028
NRF1 isoform 4 (UniProt Q16656)	inactive: -0.043
NRAS (UniProt P01111)	inactive: -0.017
NISCH (UniProt Q9Y2I1)	inactive: 0.044
NPC1 (UniProt O15118)	inactive: 0.009
NPTN (UniProt Q9Y639)	inactive: 0.026

Target	log2 fold change
NFATC4 isoform 2 (UniProt Q14934)	inactive: 0.016
NRBP1 (UniProt Q9UHY1)	inactive: -0.039
NES (UniProt P48681)	inactive: 0.044
NSFL1C isoform 5 (UniProt Q9UNZ2)	inactive: -0.019
NMRAL1 (UniProt Q9HBL8)	inactive: -0.139
NFATC2IP (UniProt Q8NCF5)	inactive: -0.088
NRDC isoform 2 (UniProt O43847)	inactive: -0.023
NOC2L (UniProt Q9Y3T9)	inactive: -0.005
NEK9 (UniProt Q8TD19)	inactive: -0.024
NFXL1 (UniProt Q6ZNB6)	inactive: -0.009
NME6 (UniProt O75414)	inactive: -0.096
NIPA2 (UniProt Q8N8Q9)	inactive: -0.029
NEMF (UniProt O60524)	inactive: 0.189
NFS1 (UniProt Q9Y697)	inactive: 0.006
NIT1 (UniProt Q86X76)	inactive: -0.001
NF2 (UniProt P35240)	inactive: -0.01
NNMT (UniProt P40261)	inactive: -0.009
NIPSNAP2 (UniProt O75323)	inactive: -0.019

These targets were tested with c1ccc([C@@H]2C[C@H]2NC2CCNCC2)cc1 in the same assay as above.
How it was run: as §1

Target	log2 fold change
NFIA isoform 4 (UniProt Q12857)	inactive: 0.059
NOP56 (UniProt O00567)	inactive: 0.024
NFIC (UniProt P08651)	inactive: 0.03
NR2F6 (UniProt P10588)	inactive: -0.067
NSD3 (UniProt Q9BZ95)	inactive: -0.059
NOA1 (UniProt Q8NC60)	inactive: 0
NIPSNAP3B (UniProt Q9BS92)	inactive: 0.099
NHLRC2 (UniProt Q8NBF2)	inactive: 0.024
NOMO1 (UniProt Q15155)	inactive: 0.163
NOLC1 isoform 2 (UniProt Q14978)	inactive: 0.108
NMT1 (UniProt P30419)	inactive: -0.018
NEU1 (UniProt Q99519)	inactive: -0.025
NELFA (UniProt Q9H3P2)	inactive: 0.035
NIBAN1 (UniProt Q9BZQ8)	inactive: 0.03
NRF1 isoform 4 (UniProt Q16656)	inactive: -0.039
NRAS (UniProt P01111)	inactive: 0.017
NISCH (UniProt Q9Y2I1)	inactive: -0.044
NPC1 (UniProt O15118)	inactive: 0.049
NPTN (UniProt Q9Y639)	inactive: 0.039

Target	log2 fold change
NFATC4 isoform 2 (UniProt Q14934)	inactive: -0.003
NRBP1 (UniProt Q9UHY1)	inactive: 0.01
NES (UniProt P48681)	inactive: -0.016
NSFL1C isoform 5 (UniProt Q9UNZ2)	inactive: 0
NMRAL1 (UniProt Q9HBL8)	inactive: -0.094
NFATC2IP (UniProt Q8NCF5)	inactive: 0.156
NRDC isoform 2 (UniProt O43847)	inactive: 0
NOC2L (UniProt Q9Y3T9)	inactive: -0.008
NEK9 (UniProt Q8TD19)	inactive: 0
NFXL1 (UniProt Q6ZNB6)	inactive: -0.066
NME6 (UniProt O75414)	inactive: -0.008
NIPA2 (UniProt Q8N8Q9)	inactive: 0.106
NEMF (UniProt O60524)	inactive: -0.035
NFS1 (UniProt Q9Y697)	inactive: -0.012
NIT1 (UniProt Q86X76)	inactive: 0.047
NF2 (UniProt P35240)	inactive: -0.013
NNMT (UniProt P40261)	inactive: -0.055
NIPSNAP2 (UniProt O75323)	inactive: -0.051
